Test results reported in PubChem BioAssay AID1508600 (Functional Genomics Laboratory (NCATS/FGL), 2020).
In all, about 53,000 sequences went through this assay and about 3,700 (7%) were called active.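 The calls were made as follows: active = gene knockdowns whose robust z-score for IL-1 alpha signal is at least 2 or at most -2, so actives lie on both sides; inactive = the rest.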 This is one part of the list.

Test: Components of the Cytosolic LPS Sensing Pathway: Gene Identification via Genome-wide siRNA Screen;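 also: robust z of the log signal after scaling to non-targeting control siRNA wells of the plate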
Conditions: RAW264.7 macrophages, IL-1a HTRF, actives lie on both sides, screened at 100 nM (by protocol), cells primed 5 h with Pam3CSK4 first
Procedure, shortened: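 Read-out: IL-1a HTRF on supernatant, divided by plate negative-control median ×100, log-transformed and converted to robust z-score. Cells were RAW264.7 given 100 nM siRNA, Pam3CSK4-primed 5 hours, then LipidA-transfected 24 hour.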

With GGAAGAAACAGGGAUUGAUTT against Mical2 as the sequence, how does the z-score read?
Its z-score is inactive: -0.281.

For GGAGUUGCUUGAUUUUAAATT against Pdk1, which z-score is on record?
The z-score was inactive: 0.459.

Which z-score does the source give for GGACAGAUACGUUAUCAAGTT against Il3 here?
The z-score was inactive: 1.31.

Which z-score does the source give for GGUGUUCGGUGUCCUGGAATT against Pctp here?
Its z-score is inactive: -0.2.

With CGUGGUGAGAUCAUAAAACTT against Bbox1 as the sequence, how does the z-score read?
Its z-score is inactive: 0.0594.

For GCAGCAAGACCUACGAAGATT against Sel1l, which z-score is on record?
The z-score was inactive: 0.566.

For GCUCAUUGAGAUAUCACAATT against Cabp2, which z-score is on record?
The z-score was inactive: -0.4.

For GGAAACUGUUUUAGAUAAGTT against Tdrd6, which z-score is on record?
The z-score was inactive: -0.251.

With GGCUUUACUACUCAACCAUTT against Gjb3 as the sequence, how does the z-score read?
Its z-score is inactive: -0.388.

Which z-score does the source give for GGGAAAGGCAUUUAUUUUCTT against Mptx1 here?
Its z-score is inactive: 1.16.

With GUCUUGACCUUUGUAACUGTT against Olfr197 as the sequence, how does the z-score read?
The z-score was inactive: 0.418.

With GGAGCUGUCCCAAGAAAUCTT against Ints5 as the sequence, how does the z-score read?
The z-score was inactive: 0.434.

Which z-score does the source give for GGUUCUGCUGGACAACUUUTT against Cyp46a1 here?
Its z-score is inactive: -0.377.

With GGCAAGUCCAUGGUCAUGUTT against Smg9 as the sequence, how does the z-score read?
Its z-score is inactive: -1.19.

For “GGUUCAGACGACAAGCAGATT against 9530068E07Rik”, which z-score is on record?
The z-score was inactive: 0.28.

Which z-score does the source give for GGAAGUAACAGAGAAGGAATT against Mtmr12 here?
Its z-score is inactive: 0.00409.

Which z-score does the source give for CCCUACAAAGUAUAUCGAATT against Irf9 here?
Its z-score is inactive: 0.283.

Which z-score does the source give for “GGAGGGAAUAGAGAAUCGGTT against A930024E05Rik” here?
Its z-score is active: 3.7.

For CCUGAACAGAUUGAAGAGUTT against Myl3, which z-score is on record?
Its z-score is inactive: -0.0652.

Which z-score does the source give for GGAUGCUUGUGCAAAGAUGTT against Anks1b here?
Its z-score is inactive: 0.862.

With GCAUAACUUAAACUGCUCATT against Zfp12 as the sequence, how does the z-score read?
The z-score was inactive: 1.91.

For GGCUAUUCAGGACUACAGCTT against St3gal2, which z-score is on record?
Its z-score is inactive: -0.982.

For CCAGGAUCAUUCUUCUGAATT against Chrna7, which z-score is on record?
Its z-score is inactive: -0.563.

For GCCUUUGAGAGCAGCCAGATT against Ypel3, which z-score is on record?
Its z-score is inactive: 0.621.

Which z-score does the source give for CCUUAAAACAGAUCCACUUTT against Nell2 here?
The z-score was inactive: 0.473.

For CGAUCUAGUCCGCCAUUACTT against Lck, which z-score is on record?
The z-score was inactive: -1.3.

Which z-score does the source give for GGGUAUACCCAACUUUUACTT against Hhex here?
Its z-score is inactive: -0.652.

Which z-score does the source give for GGCGAGUUUUCCUCUUCAGTT against Sync here?
Its z-score is inactive: 1.08.

Which z-score does the source give for CGUCUGUCAGAAACUACACTT against Atrnl1 here?
Its z-score is inactive: 0.864.

For CCAACCAAUAGUUCUAUACTT against Ppp3r2, which z-score is on record?
Its z-score is inactive: 0.0338.

With GGUCCAACCUUAUUGAAUGTT against Tlr6 as the sequence, how does the z-score read?
Its z-score is inactive: -0.345.

Which z-score does the source give for GGAGAAAAAAAACUCCAUUTT against Micu2 here?
Its z-score is inactive: 0.536.

For GGAAGGAGCUUCGAAAAAATT against Pex16, which z-score is on record?
The z-score was inactive: 0.129.

For CGAAACUCCCAUUGUUAAUTT against Zfp521, which z-score is on record?
The z-score was inactive: 1.29.

For GGCUGAAAUUGACAAGUUGTT against Ing4, which z-score is on record?
Its z-score is inactive: 1.02.

With GCAAAUGGAUGCGCUAAGCTT against Clec11a as the sequence, how does the z-score read?
The z-score was inactive: 0.912.

With GGGAUGGUGAUGGUGAAAGTT against Qprt as the sequence, how does the z-score read?
Its z-score is inactive: -0.644.

For GGUUAACGAUGAAGAUGUATT against Rab23, which z-score is on record?
The z-score was inactive: -1.05.

For GACUUCGGACAAAUGGUGCTT against Lce1f, which z-score is on record?
Its z-score is active: 2.27.

For CCCAUGCUUAUUACCGAGATT against Rab37, which z-score is on record?
The z-score was inactive: 0.0517.

Which z-score does the source give for CCUCUCCAGUGUCGACAUUTT against Olfr51 here?
Its z-score is inactive: 0.347.

Which z-score does the source give for GCCAACCUUAACUAUUAAGTT against F2rl2 here?
The z-score was inactive: 1.12.

Which z-score does the source give for GGUUCAACUUCACACUGAGTT against Mettl22 here?
Its z-score is inactive: 1.08.

With CCUAAAUAUCCAAGACAUUTT against Mcm3 as the sequence, how does the z-score read?
The z-score was inactive: 0.982.

With GGCCACCUAUGAUGGAAAUTT against Kdelr2 as the sequence, how does the z-score read?
Its z-score is inactive: -0.379.

With GGCAAAUUGAGUUUUAGCATT against Wipf1 as the sequence, how does the z-score read?
Its z-score is inactive: -0.853.

Which z-score does the source give for GGUCACCGAUGACUACAUCTT against Ccr7 here?
The z-score was inactive: 0.33.

With GGACCUCACAAUGAGUAUGTT against Thtpa as the sequence, how does the z-score read?
The z-score was inactive: 1.23.

For GCAAUUCUGUGUUCAUCCGTT against Phex, which z-score is on record?
Its z-score is inactive: 0.636.

With GGUCUUCAUAUUUCUUGCUTT against Olfr10 as the sequence, how does the z-score read?
Its z-score is inactive: -1.63.

With GGCAAUAUGUCGUAUGUAATT against Sfmbt2 as the sequence, how does the z-score read?
Its z-score is active: -2.13.

Which z-score does the source give for GCUCUAUUCCGGUGGAUGUTT against Tbc1d10b here?
Its z-score is inactive: 0.827.

For GGCGCAUUACCAGAGCUUCTT against Tnpo2, which z-score is on record?
Its z-score is inactive: -0.425.

Which z-score does the source give for GGUCUGAACAGAAGAUUUGTT against Pdlim1 here?
The z-score was inactive: 0.603.

For GGCAUUUCUUUCACUAGCUTT against Olfr618, which z-score is on record?
Its z-score is inactive: 0.833.

With GCCGCUGGUUCAUUAUCACTT against Tbx2 as the sequence, how does the z-score read?
Its z-score is inactive: 0.142.

With GGAUUUAACAACGAGAGAATT against Rasgrf2 as the sequence, how does the z-score read?
Its z-score is inactive: -0.463.

Which z-score does the source give for GGUCAACGUGAAGACUUCCTT against Ly6a here?
Its z-score is inactive: 0.89.

With GCCUUACUCUCUCAGUCCUTT against Gm5115 as the sequence, how does the z-score read?
Its z-score is inactive: -0.269.

With GGAGGAAGUCGUCUUUGGATT against Olfr1377 as the sequence, how does the z-score read?
Its z-score is inactive: 1.3.

For GGACUGUCCAAAAGAAAGGTT against Tnfrsf18, which z-score is on record?
Its z-score is inactive: -0.267.

Which z-score does the source give for GGAAUCUGCUAUGCUUAAATT against Rdh16f2 here?
Its z-score is inactive: -1.84.

Which z-score does the source give for CGCAGUUCAUCGCAUGAUUTT against Arhgef12 here?
The z-score was inactive: 0.611.

Which z-score does the source give for GGAAAACCAUGACAUCAUATT against Man2a2 here?
Its z-score is inactive: -0.818.

Which z-score does the source give for GCUUUCAGUGAGGUACAAGTT against Gm4425 here?
The z-score was inactive: -1.25.

For GCGAGCUCGAUUGAAAACUTT against Dlg3, which z-score is on record?
The z-score was inactive: 1.3.

With CCAGAUGCUGACUUGAACATT against Dpep1 as the sequence, how does the z-score read?
The z-score was inactive: 0.299.

Which z-score does the source give for GGAUUUGUGCAGGAAUGCCTT against Slc6a18 here?
The z-score was inactive: 0.171.
